Some of the results follow. These are further read-outs of the screen, such as a control signal, another cell line or another target. No call is given for them. Most of these compounds were active or inconclusive in the main read-out, so they are no random draw. Words in brackets tell the shape of the fitted curve; partial curves, single points and poor fits give uncertain potencies.
Experiment: qHTS Assay for Modulators of Lamin A Splicing
Details: HeLa LMNA splicing GFP/RFP minigene ratio, 48 h
Summary of the method: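 S3 HeLa cells stably expressing lamin A-EGFP splicing minigene plus DsRed2, 600 cells/well, 48 h compound exposure at 37C. Laser-scanning cytometry; analysed as GFP (500-530 nm)/RFP (575-640 nm) total intensity ratio; 0.5% DMSO vehicle.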

[1] = measured here: GFP splicing reporter channel
[2] = measured here: RFP viability control channel

| Structure (SMILES) | AC50 [1] | AC50 [2] |
| --- | --- | --- |
| C[C@]12CC[C@H]3c4ccc(O)cc4CC[C@@H]3[C@H]1CC[C@@H]2OC(=O)CCC1CCCC1 | 5.62 µM [rising, full curve] | 3.55 µM [rising, full curve, poor fit] |
| COc1cccc(CN2CCNC(=O)C2CC(=O)NCCn2ccc3ccccc32)c1OC (stereo not drawn) |  | 1.58 µM [rising, partial curve, poor fit] |
| Cc1ccccc1Cn1ccc(NC(=O)c2onc(C)c2Cl)n1 |  | 35.5 µM [rising, single point] |
| Fc1ccccc1/C=C1\CCCC2=C1Nc1ncnn1C2c1ccccc1F (stereo not drawn) | 20 µM [falling, single point] | 35.5 µM [falling, single point] |
| O=C(CSc1nc(Cc2ccccc2)nc2ccccc12)Nc1nc2c(s1)CCCC2 |  | 15.8 µM [rising, partial curve] |
| Cc1cc(C)c(C(=O)CSc2n[nH]c(=O)n2C2CC2)cc1C |  | 31.6 µM [rising, single point] |
| O=C1CCCC2=C1C(c1ccncc1)n1c(nc3ccccc31)N2 (stereo not drawn) | 0.0282 µM [falling, full curve, poor fit] | 0.282 µM [falling, partial curve] |
| COc1ccccc1N1CCN(/N=C/C=C\c2ccccc2[N+](=O)[O-])CC1 |  | 0.282 µM [rising, full curve, poor fit] |
| Cc1ccc(NC(=O)c2ccccc2NS(=O)(=O)c2ccc(F)cc2)cc1S(=O)(=O)N1CCCCC1 | 0.708 µM [rising, full curve] | 2.51 µM [rising, full curve] |
| Cc1ccc(-c2n[nH]c(=S)n2/N=C/c2c(C)[nH]n(-c3ccccc3)c2=O)cc1 | 6.31 µM [falling, single point] |  |
| O=C(NCc1ccccn1)c1cc(-c2ccc(-c3ccccc3)cc2)nc2ccccc12 |  | 2.51 µM [rising, full curve] |
| Cc1nc2ccc(NC(=O)c3cc(S(=O)(=O)N(C)c4ccccc4)ccc3Cl)cc2s1 | 4.47 µM [rising, partial curve] | 2.24 µM [rising, full curve] |
| O=C(OCCN1C(=O)c2ccccc2C1=O)c1ccco1 | 35.5 µM [falling, single point] | 35.5 µM [falling, single point] |
| CC(/C=N/n1c(-c2ccc(Cl)cc2)n[nH]c1=S)=C\c1ccco1 |  | 35.5 µM [rising, single point] |
| COc1cc(NC(=O)c2ccc3c(SCC(=O)O)c4c(nc3c2)CCCC4)cc(OC)c1OC | 0.708 µM [rising, full curve, poor fit] |  |
| CCOC(=O)c1[nH]c(C)c(C(=O)Nc2cc(Cl)ccc2C)c1C |  | 6.31 µM [rising, partial curve, poor fit] |
| COc1ccccc1CNc1ncnc2ccc(-c3ccccc3C#N)cc12 | 11.2 µM [falling, partial curve] | 17.8 µM [falling, partial curve] |
| COc1ccc(NS(=O)(=O)c2cccc(Cl)c2)cc1S(=O)(=O)N1CCCCC1 | 11.2 µM [rising, partial curve, poor fit] |  |
| COc1cccc(OCCCN2CCN(S(=O)(=O)c3ccc(NC(C)=O)cc3)CC2)c1 |  | 10 µM [rising, partial curve, poor fit] |
| COc1ccc(NC(=O)CC2C(=O)N(CCc3ccccc3)C(=S)N2Cc2cccnc2)cc1 (stereo not drawn) | 11.2 µM [falling, partial curve, poor fit] | 11.2 µM [falling, partial curve, poor fit] |
| CCC(C)n1c(SCC(=O)Nc2cc(C(C)(C)C)nn2-c2ccccc2)nc2ccccc2c1=O (stereo not drawn) | 10 µM [rising, partial curve] | 12.6 µM [rising, partial curve] |
| NS(=O)(=O)c1cc(C(=O)N2CCc3ccccc32)c(Cl)cc1Cl |  | 17.8 µM [rising, single point] |
| CCC(Sc1nc2ccccc2s1)C(=O)Nc1cc(C)on1 (stereo not drawn) |  | 35.5 µM [rising, single point] |
| Cc1nc(C(F)(F)F)ccc1C(=O)Nc1ccccc1F | 0.141 µM [falling, full curve] | 0.891 µM [falling, partial curve] |
| CCN(CCCNC(=O)CCc1nc(-c2ccc(C)cc2)no1)c1cccc(C)c1 |  | 35.5 µM [rising, single point] |
| Cn1c(=O)[nH]c(=O)c2c1ncn2CCCc1ccccc1 | 0.112 µM [rising, full curve, poor fit] | 3.16 µM [rising, partial curve, poor fit] |
| COCCNC(=S)N/N=C/c1c(C)[nH]c2ccccc12 |  | 15.8 µM [rising, partial curve] |

Entries shown so far that have a halogen (nine):

| Structure (SMILES) | AC50 [1] | AC50 [2] |
| --- | --- | --- |
| Cc1ccccc1Cn1ccc(NC(=O)c2onc(C)c2Cl)n1 |  | 35.5 µM [rising, single point] |
| Fc1ccccc1/C=C1\CCCC2=C1Nc1ncnn1C2c1ccccc1F (stereo not drawn) | 20 µM [falling, single point] | 35.5 µM [falling, single point] |
| Cc1ccc(NC(=O)c2ccccc2NS(=O)(=O)c2ccc(F)cc2)cc1S(=O)(=O)N1CCCCC1 | 0.708 µM [rising, full curve] | 2.51 µM [rising, full curve] |
| Cc1nc2ccc(NC(=O)c3cc(S(=O)(=O)N(C)c4ccccc4)ccc3Cl)cc2s1 | 4.47 µM [rising, partial curve] | 2.24 µM [rising, full curve] |
| CC(/C=N/n1c(-c2ccc(Cl)cc2)n[nH]c1=S)=C\c1ccco1 |  | 35.5 µM [rising, single point] |
| CCOC(=O)c1[nH]c(C)c(C(=O)Nc2cc(Cl)ccc2C)c1C |  | 6.31 µM [rising, partial curve, poor fit] |
| COc1ccc(NS(=O)(=O)c2cccc(Cl)c2)cc1S(=O)(=O)N1CCCCC1 | 11.2 µM [rising, partial curve, poor fit] |  |
| NS(=O)(=O)c1cc(C(=O)N2CCc3ccccc32)c(Cl)cc1Cl |  | 17.8 µM [rising, single point] |
| Cc1nc(C(F)(F)F)ccc1C(=O)Nc1ccccc1F | 0.141 µM [falling, full curve] | 0.891 µM [falling, partial curve] |

Next part.

| Structure (SMILES) | AC50 [1] | AC50 [2] |
| --- | --- | --- |
| CC(=O)Nc1ccc(S(=O)(=O)Nc2cccc(NC(=O)c3ccco3)c2)cc1 |  | 2.24 µM [falling, partial curve] |
| COc1ccccc1-c1ccc2ncnc(N3CCN(C)CC3)c2c1 |  | 5.62 µM [falling, partial curve, poor fit] |
| C=CCc1cc(C)ccc1OCCOCCn1ccnc1 |  | 14.1 µM [rising, partial curve, poor fit] |
| O=[N+]([O-])c1ccc(/C=C/C2=NN(c3ccccc3)C(c3ccco3)C2)o1 (stereo not drawn) | 0.00794 µM [falling, full curve, poor fit] |  |
| NC(=O)c1c(NC(=O)CS(=O)(=O)c2ccc(Cl)cc2)sc2c1CCCC2 |  | 31.6 µM [rising, single point] |
| C=CCN1CCc2c(cc(O)c(O)c2Cl)C(c2ccccc2)C1 (stereo not drawn) | 35.5 µM [falling, single point] | 35.5 µM [rising, single point] |
| Cc1ccc(S(=O)(=O)NCc2ccncc2)cc1 |  | 5.62 µM [rising, full curve] |
| CCOc1ccccc1-n1c(SCC(N)=O)nnc1-c1ccccc1 |  | 4.47 µM [falling, full curve, poor fit] |
| CC12CCC(C/C1=N\N=C1\NC(=O)/C(=C\c3cccc(Br)c3)S1)C2(C)C (stereo not drawn) | 0.316 µM [falling, full curve, poor fit] | 0.447 µM [falling, partial curve] |
| COc1cccc(-c2nccc(NCc3ccccc3)n2)c1 | 11.2 µM [falling, partial curve] | 20 µM [falling, partial curve, poor fit] |
| COCC(C)NC(=O)COc1ccc(Cl)cc1Cl (stereo not drawn) |  | 14.1 µM [rising, partial curve] |
| Cc1ccc(NC(=O)C2CCN(C(=O)c3sc4nc[nH]c(=O)c4c3C)CC2)cc1F |  | 2.24 µM [rising, partial curve] |
| C[C@@H]1CCC2[C@@H](C)[C@@H](O)O[C@@H]3O[C@@]4(C)CC[C@@H]1[C@@]23OO4 (stereo partly drawn) | 0.178 µM [rising, full curve] | 10 µM [falling, partial curve] |
| COc1ccc(C2CC(=O)c3cnc(NC(=O)c4ccccc4)nc3C2)c(OC)c1 (stereo not drawn) |  | 10 µM [rising, single point] |
| COC(=O)c1ccc(NC(=O)C(=O)NCCc2csc3nc(-c4ccccc4F)nn23)cc1 | 11.2 µM [falling, single point] | 17.8 µM [falling, single point] |
| CCOC(=O)N1CCN(Cc2nc3cc(NC(=O)CC(C)C)ccc3n2C(C)C)CC1 |  | 0.501 µM [rising, full curve] |
| CC(C)CC1NC(=O)C(CCCN)NC(=O)C(C(C)C)NC(=O)C2CCCN2C(=O)C(Cc2ccccc2)NC(=O)C(CC(C)C)NC(=O)C(CCCN)NC(=O)C(C(C)C)NC(=O)C2CCCN2C(=O)C(Cc2ccccc2)NC1=O (stereo not drawn) | 0.794 µM [rising, full curve] | 1 µM [rising, full curve, poor fit] |
| O=C(Nc1nc2ccccc2c(=O)[nH]1)c1ccccc1SCc1ccccc1 |  | 8.91 µM [rising, single point] |
| O=C(CCCN1CCC(O)(c2ccc(Cl)cc2)CC1)c1ccc(F)cc1 | 0.00355 µM [falling, full curve, poor fit] |  |
| COc1ccccc1CCNC(=O)c1cc(-c2ccncc2)nc2ccc(Br)cc12 | 2.82 µM [falling, single point] | 35.5 µM [falling, single point] |
| Cc1ccc(Cl)cc1NC(=S)NCCCSC1CCCCC1 |  | 12.6 µM [falling, partial curve] |
| O=C(NCc1cn(-c2ccccc2)nc1-c1ccccc1)c1cccc([N+](=O)[O-])c1 |  | 17.8 µM [rising, single point] |
| Cc1cc(C)n(-c2ccc(C(=O)Nc3ccccc3N3CCOCC3)cc2)n1 | 14.1 µM [falling, single point] |  |
| Cc1cc(=O)[nH]c(SCC(=O)OCc2ccccc2)c1C#N | 0.316 µM [falling, full curve] |  |
| CCOC(=O)c1sc2nc(CC(=O)OC)nc(NCc3ccc(Cl)cc3)c2c1C |  | 5.62 µM [rising, single point] |
| CCCOc1ccc(NC(=O)CC2C(=O)N(CC)C(=S)N2Cc2cccs2)cc1 (stereo not drawn) | 28.2 µM [falling, single point] | 35.5 µM [falling, partial curve] |
| O=C(Cc1ccc(F)cc1)N1CCN=C1SCc1ccc([N+](=O)[O-])cc1 |  | 5.01 µM [rising, partial curve, poor fit] |

Some values from above:
CCOC(=O)c1[nH]c(C)c(C(=O)Nc2cc(Cl)ccc2C)c1C | AC50 [2]: 6.31 µM [rising, partial curve, poor fit]
Cc1nc(C(F)(F)F)ccc1C(=O)Nc1ccccc1F | AC50 [1]: 0.141 µM [falling, full curve]

Reference: PubChem BioAssay AID1487 (National Center for Advancing Translational Sciences (NCATS), 2009)
